Measurements reported in the supplement of paper PMC3334620.
Over roughly 33,000 sequences, “E-score (-0.5 to 0.5)” has its median near -0.0014; the highest 2% begin near 0.25. This is one part of the list.

Target: T1, Cad1 (UniProt P24813)
T1 sequence: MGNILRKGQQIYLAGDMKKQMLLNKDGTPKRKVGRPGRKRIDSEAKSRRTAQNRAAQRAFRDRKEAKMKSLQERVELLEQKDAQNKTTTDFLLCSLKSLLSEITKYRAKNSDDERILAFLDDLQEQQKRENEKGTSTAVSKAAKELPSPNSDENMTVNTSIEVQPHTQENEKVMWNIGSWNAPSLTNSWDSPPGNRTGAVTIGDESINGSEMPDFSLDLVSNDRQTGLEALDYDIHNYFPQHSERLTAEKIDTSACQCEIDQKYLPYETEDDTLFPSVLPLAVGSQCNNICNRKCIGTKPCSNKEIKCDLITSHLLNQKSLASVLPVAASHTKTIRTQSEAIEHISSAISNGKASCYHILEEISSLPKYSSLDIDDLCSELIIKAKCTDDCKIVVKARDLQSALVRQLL
Assay: PBM E-score (8-mer binding enrichment) (E-score (-0.5 to 0.5)); higher = stronger / more preferred TF binding
Conditions: protein concentration: 100 nM; construct: GST-full length
Procedure, shortened: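 Detection of bound protein used fluorescent anti-GST, with scans normalised by masliner. The proteins were GST-tagged yeast transcription factors applied at about 100-200 nM to universal all-10-mer Agilent arrays made double-stranded by primer extension. Each ungapped eight-base word, pooled with its reverse complement, was scored with an E-score from the Universal PBM Analysis Suite.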

Row | Sequence | PBM E-score
1 | CACGAAGG | -0.0679
2 | CTGCATGA | -0.111
3 | AACGACGT | 0.121
4 | ATGACCAT | 0.0645
5 | CATCACAG | -0.00307
6 | CCCGGCGA | 0.0311
7 | CCCCTAAC | -0.15
8 | GAGCAAAC | 0.0254
9 | GAAGCGGA | -0.0376
10 | AGGACTAT | -0.14
11 | GCAAACGA | 0.144
12 | ACGCGAGA | 0.0765
13 | CTATCTTC | -0.00322
14 | GGAGTACC | -0.11
15 | ATGAAATC | -0.00994
16 | ACACCCGA | 0.134
17 | GCTGAACC | -0.0931
18 | AAGATTCC | 0.15
19 | ACCACTGA | -0.11
20 | ATATAGTC | 0.249
21 | CCCCCTAC | -0.362
22 | CCAATGAA | -0.00068
23 | CGTGTATC | 0.0347
24 | GGAACCGA | 0.0676
25 | CCCTCGTA | -0.0776

Quoted at random: 5 entries already listed.
Row | Sequence | PBM E-score
2 | CTGCATGA | -0.111
5 | CATCACAG | -0.00307
14 | GGAGTACC | -0.11
11 | GCAAACGA | 0.144
20 | ATATAGTC | 0.249

Carrying on:

Row | Sequence | PBM E-score
26 | CGCCCGGC | -0.198
27 | AGGGCGTG | -0.139
28 | AGTATATG | 0.0763
29 | CATTGACA | -0.215
30 | CAAGCGTA | -0.0711
31 | CACCTCGC | 0.0354
32 | AGTTATTG | 0.127
33 | ACGGGAGT | 0.194
34 | AAGCCCTA | 0.0261
35 | CTTAACAC | 0.127
36 | CCCTGCAA | -0.0707
37 | CCTTGGCA | -0.261
38 | GTATCAAA | 0.142
39 | CACATTCC | 0.0513
40 | CCCATAGG | 0.00632
41 | AAGGGGCC | -0.211
42 | CTGGCCAA | 0.157
43 | CGGCTATC | -0.0996
44 | GTTATCGA | 0.0927
45 | ATGCGCGC | 0.238
46 | ACTTAAAA | 0.0782
47 | ACGGTTGC | -0.0529
48 | ACATAGCC | 0.181
49 | AGAGAACA | 0.108
50 | CCCTATTC | -0.0694

Row | Sequence | PBM E-score
51 | AGGAGCCG | -0.315
52 | ATTCCCGC | 0.202
53 | CCCGCTGA | -0.0893
54 | AGGCAGAG | -0.0635
55 | AACTATTC | 0.113
56 | ACTCCACC | -0.0217
57 | GGTGGTCA | -0.172
58 | TGTGGAAA | 0.0953
59 | ATCTTTTC | 0.159
60 | TCCCAGGA | -0.243
61 | GATAGAAA | 0.00079
62 | ACCTGCCT | -0.12
63 | CTAGATAG | 0.0131
64 | ATACGGAA | 0.151
65 | CCGATCGA | 0.0111
66 | AGTCACGC | -0.175
67 | AAATCTTC | -0.0471
68 | GAATTCCA | 0.117
69 | ACTTGGGC | -0.169
70 | CCTAAGAG | 0.0476
71 | AGAGAACC | -0.19
72 | TGGCCCCA | -0.295
73 | ACAGCGAC | -0.21
74 | CGGCAGTA | -0.0865
75 | AGGTAGAG | -0.0989

Row | Sequence | PBM E-score
76 | ATTCCCGG | 0.296
77 | GCTCAAGC | -0.166
78 | AAAAATAA | 0.207
79 | TTAAGAAA | -0.0462
80 | AGAAAATA | 0.132
81 | CACGTGGG | -0.126
82 | CCCGGTCC | -0.222
83 | AAGCTTGC | -0.0904
84 | GGACGCTA | -0.137
85 | ACCGCGAC | 0.199
86 | CCGTAGAA | -0.122
87 | GGCCCATA | -0.133
88 | AGAGCAGA | -0.148
89 | ATATGTAC | 0.202
90 | CGCGCACC | 0.0571
91 | CGAATTCG | 0.171
92 | GAACGCGA | 0.111
93 | AGACGGAT | 0.201
94 | ATAGAAAA | 0.117
95 | AAGCCGCT | 0.0602
96 | CAGAGGCA | -0.0209
97 | ACCGTATA | -0.00739
98 | CATAATAA | -0.0382
99 | AATTGCGT | 0.139
100 | ACTCTCAC | 0.033

Row | Sequence | PBM E-score
101 | AGATACTG | 0.158
102 | AATGACGA | 0.162
103 | AAATGTGA | 0.139
104 | AGCGCTCA | 0.154
105 | CCTTGTCA | -0.111
106 | CACACAGC | 0.107
107 | CCTGAATA | 0.17
108 | AATATTGC | 0.294
109 | GAAGCACC | -0.125
110 | ATCTTGCA | 0.202
111 | CCGGACAC | -0.0858
112 | CCGTGCAG | -0.0124
113 | GACTACTC | 0.0182
114 | CAAAGATA | 0.182
115 | TACTACCA | -0.123
116 | ACGTGTAC | -0.142
117 | AGTATAAT | 0.163
118 | CTCGCCGA | -0.0375
119 | ATCGGATC | 0.227
120 | CAATCCAA | 0.0494
121 | AGGCGTTA | 0.0348
122 | GCATATCC | 0.095
123 | CGTCCAGA | -0.0971
124 | CACTACTC | 0.0957
125 | ATTGGGAG | -0.152

Quoted from above: nos. 59–61
Row | Sequence | PBM E-score
59 | ATCTTTTC | 0.159
60 | TCCCAGGA | -0.243
61 | GATAGAAA | 0.00079

Going on with the list.

Row | Sequence | PBM E-score
126 | ACCAAAGA | 0.0914
127 | TAGCAATA | 0.102
128 | CGTATAGC | 0.00542
129 | AGAACAAT | 0.117
130 | GTCGTAAA | 0.0215
131 | CCAACACC | -0.109
132 | AAAGTGTG | 0.0308
133 | AAAACTCC | -0.184
134 | CACGATAG | 0.0883
135 | ACACGGTC | -0.0715
136 | AGTTACAG | -0.0124
137 | GCAGTCAA | -0.147
138 | AGCTGGGC | -0.0598
139 | AGCGGAAT | -0.0284
140 | CGAACGCC | -0.0886
141 | GATCATTA | 0.115
142 | CCAAATGA | 0.168
143 | CTAAAAAG | -0.115
144 | CAGTGTCG | -0.161
145 | GCCAAGGC | -0.224
146 | AAATTCGA | 0.0357
147 | GGCATTGA | -0.0489
148 | AGATCGAC | 0.0578
149 | TCCACACA | -0.0609
150 | AATATTTA | 0.213

Row | Sequence | PBM E-score
151 | ATGCACTG | 0.0824
152 | AACTACCC | -0.174
153 | ATACGTGC | -0.0538
154 | CACAGGTG | -0.0858
155 | CTGCCCAA | -0.0126
156 | GTTGACAA | 0.166
157 | AGATTTAA | 0.0822
158 | AAGGTAGA | -0.18
159 | CTAAGGCA | -0.18
160 | ACACGCGC | 0.0948
161 | CGTCCCAC | -0.078
162 | AATCGTAG | 0.149
163 | CCGCACAA | -0.0324
164 | AAAGAATT | 0.0721
165 | ATGCACCG | -0.0432
166 | CTCGAATA | -0.0823
167 | GAGTTGCA | 0.0539
168 | GGTCCACC | -0.276
169 | AGCAACAC | 0.152
170 | CAGGGTAG | -0.0304
171 | AGTCTACG | -0.175
172 | AGCTATCA | 0.118
173 | GTCCAGAC | -0.0351
174 | ACTCCCGA | 0.0151
175 | AACGGTAA | -0.0293

Row | Sequence | PBM E-score
176 | GTAGGGTA | 0.0364
177 | GAAAGAAA | 0.183
178 | GCTACTGA | 0.0457
179 | CCTGCAAA | -0.117
180 | CAGTGACC | -0.17
181 | CCGGGCTA | -0.289
182 | CTAGTCAC | -0.0877
183 | GTAAGCAC | 0.163
184 | TACAAGAA | 0.0619
185 | TGGATTAA | -0.073
186 | AATTTACC | 0.104
187 | GTGCTAAC | 0.103
188 | CTCCCGTA | -0.191
189 | AGCCGAAA | -0.073
190 | CGCTGACA | 0.297
191 | GGCTTGCA | -0.0157
192 | CGTGCCTC | -0.0429
193 | GAACTGAA | -0.0794
194 | GCACTTAC | 0.015
195 | TAAGGACA | 0.118
196 | AGTCCGGC | 0.108
197 | CCACAATC | 0.056
198 | ATCATATA | 0.0551
199 | CTCCTATA | -0.327
200 | ACAATGCT | -0.0332

Row | Sequence | PBM E-score
201 | CTGACACC | -0.17
202 | ACGGACCA | 0.243
203 | ACATAGAG | -0.176
204 | ACGTCTGA | 0.183
205 | CAGGAAGA | -0.0775
206 | AATCGACT | -0.039
207 | CAATAGCC | -0.162
208 | CTAGGAGC | -0.118
209 | CAAAGAGG | 0.0231
210 | GATTCATA | 0.0689
211 | GACACGAC | 0.105
212 | CCTCGCTC | 0.0626
213 | TGGTTCAA | 0.0942
214 | ACGTGACT | -0.115
215 | CCTAGCAA | -0.0559
216 | ATGTGGGG | -0.289
217 | AGCTGTAG | 0.0163
218 | CGACCGCA | -0.0906
219 | AAGATGAT | 0.0317
